In publication PMC11010364 one finds binding data, which are given here for one molecule.

The target of this assay is T1, Follistatin-like 1 (FSTL1) (human (endogenous in A431)) (UniProt Q12841).
T1 sequence: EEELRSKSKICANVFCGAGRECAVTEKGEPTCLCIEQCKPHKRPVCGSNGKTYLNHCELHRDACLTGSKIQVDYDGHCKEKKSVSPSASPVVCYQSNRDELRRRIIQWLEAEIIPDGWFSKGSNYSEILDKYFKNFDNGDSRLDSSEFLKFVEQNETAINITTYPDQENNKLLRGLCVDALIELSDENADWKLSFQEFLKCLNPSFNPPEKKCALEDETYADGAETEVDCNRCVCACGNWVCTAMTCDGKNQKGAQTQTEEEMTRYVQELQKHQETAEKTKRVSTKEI
Kind of assay: co-IP; A431 cell total protein in RIPA buffer with protease inhibitors; 2 µg antibody or IgG control, 4 °C overnight, Protein A/G agarose, three PBS washes; western blot. Background: In western blotting, separated proteins are transferred to a membrane and probed.

These are yes or no findings as the source states them, for the method shown. In cells and extracts the contact can be indirect. Some binding calls cover weakened binding; strength is not graded here.

B1: Zinc Finger E-box Binding Homeobox 1 (ZEB1) (protein, UniProt P37275 1-1124)
chain: MADGPRCKRRKQANPRRNNVTNYNTVVETNSDSDDEDKLHIVEEESVTDAADCEGVPEDDLPTDQTVLPGRSSEREGNAKNCWEDDRKEGQEILGPEAQADEAGCTVKDDECESDAENEQNHDPNVEEFLQQQDTAVIFPEAPEEDQRQGTPEASGHDENGTPDAFSQLLTCPYCDRGYKRFTSLKEHIKYRHEKNEDNFSCSLCSYTFAYRTQLERHMTSHKSGRDQRHVTQSGCNRKFKCTECGKAFKYKHHLKEHLRIHSGEKPYECPNCKKRFSHSGSYSSHISSKKCISLIPVNGRPRTGLKTSQCSSPSLSASPGSPTRPQIRQKIENKPLQEQLSVNQIKTEPVDYEFKPIVVASGINCSTPLQNGVFTGGGPLQATSSPQGMVQAVVLPTVGLVSPISINLSDIQNVLKVAVDGNVIRQVLENNQANLASKEQETINASPIQQGGHSVISAISLPLVDQDGTTKIIINYSLEQPSQLQVVPQNLKKENPVATNSCKSEKLPEDLTVKSEKDKSFEGGVNDSTCLLCDDCPGDINALPELKHYDLKQPTQPPPLPAAEAEKPESSVSSATGDGNLSPSQPPLKNLLSLLKAYYALNAQPSAEELSKIADSVNLPLDVVKKWFEKMQAGQISVQSSEPSSPEPGKVNIPAKNNDQPQSANANEPQDSTVNLQSPLKMTNSPVLPVGSTTNGSRSSTPSPSPLNLSSSRNTQGYLYTAEGAQEEPQVEPLDLSLPKQQGELLERSTITSVYQNSVYSVQEEPLNLSCAKKEPQKDSCVTDSEPVVNVIPPSANPINIAIPTVTAQLPTIVAIADQNSVPCLRALAANKQTILIPQVAYTYSTTVSPAVQEPPLKVIQPNGNQDERQDTSSEGVSNVEDQNDSDSTPPKKKMRKTENGMYACDLCDKIFQKSSSLLRHKYEHTGKRPHECGICKKAFKHKHHLIEHMRLHSGEKPYQCDKCGKRFSHSGSYSQHMNHRYSYCKREAEERDSTEQEEAGPEILSNEHVGARASPSQGDSDERESLTREEDEDSEKEEEEEDKEMEELQEEKECEKPQGDEEEEEEEEEVEEEEVEEAENEGEEAKTEGLMKDDRAESQASSLGQKVGESSEQVSEEKTNEA
On to B1, for which the binding result is given as “binds”.
